Values of other authors in patent US4935438A, “Dopamine-β-hydroxylase inhibitors” (SmithKline Beckman Corporation, priority 1987, dated 1990).
At least one structure is not confirmed: it was looked up by name or label, or the drawing left a doubt.

Target: T1, DBH (Homo sapiens, UniProt P09172)
T1 sequence (P09172 1-617): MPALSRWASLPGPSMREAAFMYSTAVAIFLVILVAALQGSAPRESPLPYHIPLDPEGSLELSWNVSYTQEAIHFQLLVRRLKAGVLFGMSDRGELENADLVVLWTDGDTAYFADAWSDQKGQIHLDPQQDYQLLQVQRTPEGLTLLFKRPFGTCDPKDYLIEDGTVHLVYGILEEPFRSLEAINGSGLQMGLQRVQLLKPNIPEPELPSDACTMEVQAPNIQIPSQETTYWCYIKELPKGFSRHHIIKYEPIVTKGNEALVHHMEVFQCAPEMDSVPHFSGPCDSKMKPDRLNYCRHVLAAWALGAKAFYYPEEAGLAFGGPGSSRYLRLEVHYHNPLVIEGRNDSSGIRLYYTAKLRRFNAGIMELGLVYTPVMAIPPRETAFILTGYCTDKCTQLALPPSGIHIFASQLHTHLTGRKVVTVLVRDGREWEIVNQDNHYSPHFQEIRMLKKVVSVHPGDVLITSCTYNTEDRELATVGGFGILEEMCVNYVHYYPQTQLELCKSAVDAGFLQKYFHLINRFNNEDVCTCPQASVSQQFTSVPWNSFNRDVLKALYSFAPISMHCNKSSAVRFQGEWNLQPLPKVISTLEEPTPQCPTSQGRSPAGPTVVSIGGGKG
Conditions: Runti et al.; cited from earlier work

O=C(O)c1ccc(-c2ccccc2)cn1 [phenylpicolinic acid]
DBH inhibitory activity relative to fusaric acid: twice the inhibitory activity of fusaric acid
